No constants are given. Whether binding was seen depends on the method and setting. Binding seen in cells or lysates may run through a third protein. A yes stands for co-enrichment or nearness to the bait. Other partners may have been found. Where a sequence is shown, tags or fusion partners need not be part of it.
B1: PDIA6 (protein, UniProt Q15084 20-440)
chain: LYSSSDDVIELTPSNFNREVIQSDSLWLVEFYAPWCGHCQRLTPEWKKAATALKDVVKVGAVDADKHHSLGGQYGVQGFPTIKIFGSNKNRPEDYQGGRTGEAIVDAALSALRQLVKDRLGGRSGGYSSGKQGRSDSSSKKDVIELTDDSFDKNVLDSEDVWMVEFYAPWCGHCKNLEPEWAAAASEVKEQTKGKVKLAAVDATVNQVLASRYGIRGFPTIKIFQKGESPVDYDGGRTRSDIVSRALDLFSDNAPPPELLEIINEDIAKRTCEEHQLCVVAVLPHILDTGAAGRNSYLEVLLKLADKYKKKMWGWLWTEAGAQSELETALGIGGFGYPAMAAINARKMKFALLKGSFSEQGINEFLRELSFGRGSTAPVGGGAFPTIVEREPWDGRDGELPVEDDIDLSDVELDDLGKDEL
B2: PRXV (protein, UniProt P30044 53-214)
chain: MAPIKVGDAIPAVEVFEGEPGNKVNLAELFKGKKGVLFGVPGAFTPGCSKTHLPGFVEQAEALKAKGVQVVACLSVNDAFVTGEWGRAHKAEGKVRLLADPTGAFGKETDLLLDDSLVSIFGNRRLKRFSMVVQDGIVKALNVEPDGTGLTCSLAPNIISQL
B3: LMAN1 (protein, UniProt P49257 31-510)
chain: DGVGGDPAVALPHRRFEYKYSFKGPHLVQSDGTVPFWAHAGNAIPSSDQIRVAPSLKSQRGSVWTKTKAAFENWEVEVTFRVTGRGRIGADGLAIWYAENQGLEGPVFGSADLWNGVGIFFDSFDNDGKKNNPAIVIIGNNGQIHYDHQNDGASQALASCQRDFRNKPYPVRAKITYYQNTLTVMINNGFTPDKNDYEFCAKVENMIIPAQGHFGISAATGGLADDHDVLSFLTFQLTEPGKEPPTPDKEISEKEKEKYQEEFEHFQQELDKKKEEFQKGHPDLQGQPAEEIFESVGDRELRQVFEGQNRIHLEIKQLNRQLDMILDEQRRYVSSLTEEISKRGAGMPGQHGQITQQELDTVVKTQHEILRQVNEMKNSMSETVRLVSGMQHPGSAGGVYETTQHFIDIKEHLHIVKRDIDNLVQRNMPSNEKPKCPELPPFPSCLSTVHFIIFVVVQTVLFIGYIMYRSQQEAAAKKFF
B4: ERO1 A (protein, UniProt Q96HE7 24-468)
chain: EEQPPETAAQRCFCQVSGYLDDCTCDVETIDRFNNYRLFPRLQKLLESDYFRYYKVNLKRPCPFWNDISQCGRRDCAVKPCQSDEVPDGIKSASYKYSEEANNLIEECEQAERLGAVDESLSEETQKAVLQWTKHDDSSDNFCEADDIQSPEAEYVDLLLNPERYTGYKGPDAWKIWNVIYEENCFKPQTIKRPLNPLASGQGTSEENTFYSWLEGLCVEKRAFYRLISGLHASINVHLSARYLLQETWLEKKWGHNITEFQQRFDGILTEGEGPRRLKNLYFLYLIELRALSKVLPFFERPDFQLFTGNKIQDEENKMLLLEILHEIKSFPLHFDENSFFAGDKKEAHKLKEDFRLHFRNISRIMDCVGCFKCRLWGKLQTQGLGTALKILFSEKLIANMPESGPSYEFHLTRQEIVSLFNAFGRISTSVKELENFRNLLQNIH
B5: Mannosyl-oligosaccharide glucosidase (enzyme, UniProt Q13724 1-837)
chain: MARGERRRRAVPAEGVRTAERAARGGPGRRDGRGGGPRSTAGGVALAVVVLSLALGMSGRWVLAWYRARRAVTLHSAPPVLPADSSSPAVAPDLFWGTYRPHVYFGMKTRSPKPLLTGLMWAQQGTTPGTPKLRHTCEQGDGVGPYGWEFHDGLSFGRQHIQDGALRLTTEFVKRPGGQHGGDWSWRVTVEPQDSGTSALPLVSLFFYVVTDGKEVLLPEVGAKGQLKFISGHTSELGDFRFTLLPPTSPGDTAPKYGSYNVFWTSNPGLPLLTEMVKSRLNSWFQHRPPGAPPERYLGLPGSLKWEDRGPSGQGQGQFLIQQVTLKIPISIEFVFESGSAQAGGNQALPRLAGSLLTQALESHAEGFRERFEKTFQLKEKGLSSGEQVLGQAALSGLLGGIGYFYGQGLVLPDIGVEGSEQKVDPALFPPVPLFTAVPSRSFFPRGFLWDEGFHQLVVQRWDPSLTREALGHWLGLLNADGWIGREQILGDEARARVPPEFLVQRAVHANPPTLLLPVAHMLEVGDPDDLAFLRKALPRLHAWFSWLHQSQAGPLPLSYRWRGRDPALPTLLNPKTLPSGLDDYPRASHPSVTERHLDLRCWVALGARVLTRLAEHLGEAEVAAELGPLAASLEAAESLDELHWAPELGVFADFGNHTKAVQLKPRPPQGLVRVVGRPQPQLQYVDALGYVSLFPLLLRLLDPTSSRLGPLLDILADSRHLWSPFGLRSLAASSSFYGQRNSEHDPPYWRGAVWLNVNYLALGALHHYGHLEGPHQARAAKLHGELRANVVGNVWRQYQATGFLWEQYSDRDGRGMGCRPFHGWTSLVLLAMAEDY
B6: Hypoxia up-regulated protein 1 (protein, UniProt Q9Y4L1 33-999)
chain: LAVMSVDLGSESMKVAIVKPGVPMEIVLNKESRRKTPVIVTLKENERFFGDSAASMAIKNPKATLRYFQHLLGKQADNPHVALYQARFPEHELTFDPQRQTVHFQISSQLQFSPEEVLGMVLNYSRSLAEDFAEQPIKDAVITVPVFFNQAERRAVLQAARMAGLKVLQLINDNTATALSYGVFRRKDINTTAQNIMFYDMGSGSTVCTIVTYQMVKTKEAGMQPQLQIRGVGFDRTLGGLEMELRLRERLAGLFNEQRKGQRAKDVRENPRAMAKLLREANRLKTVLSANADHMAQIEGLMDDVDFKAKVTRVEFEELCADLFERVPGPVQQALQSAEMSLDEIEQVILVGGATRVPRVQEVLLKAVGKEELGKNINADEAAAMGAVYQAAALSKAFKVKPFVVRDAVVYPILVEFTREVEEEPGIHSLKHNKRVLFSRMGPYPQRKVITFNRYSHDFNFHINYGDLGFLGPEDLRVFGSQNLTTVKLKGVGDSFKKYPDYESKGIKAHFNLDESGVLSLDRVESVFETLVEDSAEEESTLTKLGNTISSLFGGGTTPDAKENGTDTVQEEEESPAEGSKDEPGEQVELKEEAEAPVEDGSQPPPPEPKGDATPEGEKATEKENGDKSEAQKPSEKAEAGPEGVAPAPEGEKKQKPARKRRMVEEIGVELVVLDLPDLPEDKLAQSVQKLQDLTLRDLEKQEREKAANSLEAFIFETQDKLYQPEYQEVSTEEQREEISGKLSAASTWLEDEGVGATTVMLKEKLAELRKLCQGLFFRVEERKKWPERLSALDNLLNHSSMFLKGARLIPEMDQIFTEVEMTTLEKVINETWAWKNATLAEQAKLPATEKPVLLSKDIEAKMMALDREVQYLLNKAKFTKPRPRPKDKNGTRAEPPLNASASDQGEKVIPPAGQTEDAEPISEPEKVETGSEPGDTEPLELGGPGAEPEQKEQSTGQKRPLKNDEL
B7: DnaJ homolog subfamily C member 3 (protein, UniProt Q13217 32-504)
chain: GVNADVEKHLELGKKLLAAGQLADALSQFHAAVDGDPDNYIAYYRRATVFLAMGKSKAALPDLTKVIQLKMDFTAARLQRGHLLLKQGKLDEAEDDFKKVLKSNPSENEEKEAQSQLIKSDEMQRLRSQALNAFGSGDYTAAIAFLDKILEVCVWDAELRELRAECFIKEGEPRKAISDLKAASKLKNDNTEAFYKISTLYYQLGDHELSLSEVRECLKLDQDHKRCFAHYKQVKKLNKLIESAEELIRDGRYTDATSKYESVMKTEPSIAEYTVRSKERICHCFSKDEKPVEAIRVCSEVLQMEPDNVNALKDRAEAYLIEEMYDEAIQDYETAQEHNENDQQIREGLEKAQRLLKQSQKRDYYKILGVKRNAKKQEIIKAYRKLALQWHPDNFQNEEEKKKAEKKFIDIAAAKEVLSDPEMRKKFDDGEDPLDAESQQGGGGNPFHRSWNSWQGFNPFSSGGPFRFKFHFN

Biological target: H6PD-BirA*-HA fusion protein
Assay: proximity labelling; BioID: MDA-MB-231 clone stably expressing H6PD-BirA*-HA, 50 µM biotin for 72 h; RIPA lysate, streptavidin magnetic beads, label-free quantitative MS, compared to parental MDA-MB-231 cells

Binder | binding
B1 | binds
B2 | binds
B3 | binds
B4 | binds
B5 | binds
B6 | binds
B7 | binds

— publication PMC12032772
